Source: the supplement of paper PMC10849652
This is one part of the list.

By UniProt entry, the sequences of proteins in these tests, tags left out. Where a name states a change or a piece, a line headed by the entry shows the natural chain unless it says otherwise.
UniProt Q06323: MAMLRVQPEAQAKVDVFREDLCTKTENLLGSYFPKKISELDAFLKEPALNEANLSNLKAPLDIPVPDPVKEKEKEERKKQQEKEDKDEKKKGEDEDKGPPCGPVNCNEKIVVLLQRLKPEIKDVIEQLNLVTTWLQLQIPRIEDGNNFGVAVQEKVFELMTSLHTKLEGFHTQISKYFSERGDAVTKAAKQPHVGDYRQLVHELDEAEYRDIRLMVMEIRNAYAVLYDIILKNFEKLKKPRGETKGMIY
UniProt Q5JS54: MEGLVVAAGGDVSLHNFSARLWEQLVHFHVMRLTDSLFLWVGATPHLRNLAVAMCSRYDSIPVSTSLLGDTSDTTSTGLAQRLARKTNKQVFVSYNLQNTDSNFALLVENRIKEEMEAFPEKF
UniProt O75832: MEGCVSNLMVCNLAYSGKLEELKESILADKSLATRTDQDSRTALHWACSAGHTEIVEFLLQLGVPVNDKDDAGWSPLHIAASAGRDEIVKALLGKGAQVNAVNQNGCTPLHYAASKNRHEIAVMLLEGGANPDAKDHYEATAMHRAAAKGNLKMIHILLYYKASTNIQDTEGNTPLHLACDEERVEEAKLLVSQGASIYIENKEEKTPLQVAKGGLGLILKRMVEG
UniProt Q96PZ0: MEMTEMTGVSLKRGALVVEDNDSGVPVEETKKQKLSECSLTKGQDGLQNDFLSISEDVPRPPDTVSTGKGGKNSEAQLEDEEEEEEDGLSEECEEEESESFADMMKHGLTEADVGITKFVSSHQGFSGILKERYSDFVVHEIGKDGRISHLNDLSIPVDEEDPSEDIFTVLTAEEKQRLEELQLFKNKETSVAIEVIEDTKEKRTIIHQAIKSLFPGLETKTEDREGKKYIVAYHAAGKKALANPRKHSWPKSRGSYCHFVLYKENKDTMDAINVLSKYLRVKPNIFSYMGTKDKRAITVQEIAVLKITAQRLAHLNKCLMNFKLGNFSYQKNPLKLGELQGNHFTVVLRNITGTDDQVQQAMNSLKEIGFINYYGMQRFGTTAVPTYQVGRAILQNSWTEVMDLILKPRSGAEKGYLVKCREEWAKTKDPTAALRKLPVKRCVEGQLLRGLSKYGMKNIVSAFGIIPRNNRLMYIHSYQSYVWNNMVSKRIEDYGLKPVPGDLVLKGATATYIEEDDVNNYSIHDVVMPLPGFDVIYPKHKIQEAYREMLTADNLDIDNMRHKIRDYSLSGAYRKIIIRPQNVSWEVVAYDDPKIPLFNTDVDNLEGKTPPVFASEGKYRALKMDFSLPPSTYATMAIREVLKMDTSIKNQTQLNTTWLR
UniProt Q96BW5: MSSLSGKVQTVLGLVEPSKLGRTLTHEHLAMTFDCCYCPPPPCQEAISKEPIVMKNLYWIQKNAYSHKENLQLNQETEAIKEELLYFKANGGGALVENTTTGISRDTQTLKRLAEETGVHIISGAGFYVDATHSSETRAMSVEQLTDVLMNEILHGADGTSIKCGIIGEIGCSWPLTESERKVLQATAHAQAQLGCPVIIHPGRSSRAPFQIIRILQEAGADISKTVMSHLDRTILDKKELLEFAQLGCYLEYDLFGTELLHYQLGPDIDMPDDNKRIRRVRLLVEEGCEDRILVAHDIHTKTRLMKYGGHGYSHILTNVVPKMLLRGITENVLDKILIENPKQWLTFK
UniProt P28066: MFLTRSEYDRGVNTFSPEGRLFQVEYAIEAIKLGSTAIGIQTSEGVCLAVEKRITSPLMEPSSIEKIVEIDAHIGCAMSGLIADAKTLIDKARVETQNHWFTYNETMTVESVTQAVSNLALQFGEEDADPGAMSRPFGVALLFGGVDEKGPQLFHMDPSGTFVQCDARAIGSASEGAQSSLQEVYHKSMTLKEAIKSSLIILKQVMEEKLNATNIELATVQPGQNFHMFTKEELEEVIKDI
UniProt Q9NRG1: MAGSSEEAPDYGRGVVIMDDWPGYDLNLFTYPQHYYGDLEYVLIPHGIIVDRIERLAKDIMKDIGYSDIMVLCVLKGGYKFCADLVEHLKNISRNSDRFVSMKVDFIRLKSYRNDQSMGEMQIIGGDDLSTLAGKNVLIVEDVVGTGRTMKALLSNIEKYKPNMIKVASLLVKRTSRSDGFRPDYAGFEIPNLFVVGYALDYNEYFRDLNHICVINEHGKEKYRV
UniProt Q9H939: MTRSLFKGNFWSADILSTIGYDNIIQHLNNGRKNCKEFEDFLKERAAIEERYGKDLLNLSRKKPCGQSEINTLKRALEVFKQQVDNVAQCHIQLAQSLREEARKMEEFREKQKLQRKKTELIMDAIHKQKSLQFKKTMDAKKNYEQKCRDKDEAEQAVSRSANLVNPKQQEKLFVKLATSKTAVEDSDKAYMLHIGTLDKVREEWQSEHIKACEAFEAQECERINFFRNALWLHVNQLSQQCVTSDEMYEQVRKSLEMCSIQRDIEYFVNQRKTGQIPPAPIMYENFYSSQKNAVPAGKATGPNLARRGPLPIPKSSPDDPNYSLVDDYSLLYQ
UniProt P61289: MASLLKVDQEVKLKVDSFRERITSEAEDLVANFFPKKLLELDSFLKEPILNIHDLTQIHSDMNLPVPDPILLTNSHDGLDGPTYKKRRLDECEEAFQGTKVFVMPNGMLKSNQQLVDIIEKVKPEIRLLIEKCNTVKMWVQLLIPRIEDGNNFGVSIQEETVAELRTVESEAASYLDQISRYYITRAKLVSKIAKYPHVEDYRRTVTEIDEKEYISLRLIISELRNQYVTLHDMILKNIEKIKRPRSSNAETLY
UniProt Q99436: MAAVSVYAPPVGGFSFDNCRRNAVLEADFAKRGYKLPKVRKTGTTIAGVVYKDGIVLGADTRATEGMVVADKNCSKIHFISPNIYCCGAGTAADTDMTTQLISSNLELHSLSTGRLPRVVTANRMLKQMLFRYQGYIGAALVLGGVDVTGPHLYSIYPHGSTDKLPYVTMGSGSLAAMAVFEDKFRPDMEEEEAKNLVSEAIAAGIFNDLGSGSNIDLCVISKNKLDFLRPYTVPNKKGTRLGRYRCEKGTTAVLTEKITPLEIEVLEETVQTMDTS
UniProt Q9NXS2: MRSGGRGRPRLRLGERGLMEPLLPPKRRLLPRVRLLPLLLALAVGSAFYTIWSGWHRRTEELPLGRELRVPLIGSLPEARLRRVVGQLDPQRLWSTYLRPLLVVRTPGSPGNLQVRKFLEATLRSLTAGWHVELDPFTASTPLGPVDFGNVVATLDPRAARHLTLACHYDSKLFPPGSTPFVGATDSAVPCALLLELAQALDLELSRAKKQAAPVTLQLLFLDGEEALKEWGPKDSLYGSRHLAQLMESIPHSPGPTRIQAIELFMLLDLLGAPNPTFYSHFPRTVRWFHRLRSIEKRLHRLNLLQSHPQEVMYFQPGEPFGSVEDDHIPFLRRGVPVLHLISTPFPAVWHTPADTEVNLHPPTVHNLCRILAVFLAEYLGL
UniProt P25789: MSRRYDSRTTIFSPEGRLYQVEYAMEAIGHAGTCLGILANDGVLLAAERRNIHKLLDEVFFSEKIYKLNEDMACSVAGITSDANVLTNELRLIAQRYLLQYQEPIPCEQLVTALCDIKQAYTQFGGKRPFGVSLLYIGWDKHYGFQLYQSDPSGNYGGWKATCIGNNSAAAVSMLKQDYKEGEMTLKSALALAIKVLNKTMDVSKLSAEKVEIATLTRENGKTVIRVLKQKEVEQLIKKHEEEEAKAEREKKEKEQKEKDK
UniProt P18031: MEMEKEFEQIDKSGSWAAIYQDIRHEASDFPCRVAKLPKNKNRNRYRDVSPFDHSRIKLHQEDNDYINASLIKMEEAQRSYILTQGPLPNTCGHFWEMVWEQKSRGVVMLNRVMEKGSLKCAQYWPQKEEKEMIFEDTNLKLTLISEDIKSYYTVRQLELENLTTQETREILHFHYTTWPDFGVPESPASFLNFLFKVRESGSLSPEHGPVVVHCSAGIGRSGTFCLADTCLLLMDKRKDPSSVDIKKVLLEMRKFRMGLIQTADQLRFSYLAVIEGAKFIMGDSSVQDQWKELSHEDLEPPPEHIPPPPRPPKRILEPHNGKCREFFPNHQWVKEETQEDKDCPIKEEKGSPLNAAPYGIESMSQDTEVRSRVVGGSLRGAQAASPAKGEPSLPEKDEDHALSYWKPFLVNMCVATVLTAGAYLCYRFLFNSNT
UniProt Q9Y6I8: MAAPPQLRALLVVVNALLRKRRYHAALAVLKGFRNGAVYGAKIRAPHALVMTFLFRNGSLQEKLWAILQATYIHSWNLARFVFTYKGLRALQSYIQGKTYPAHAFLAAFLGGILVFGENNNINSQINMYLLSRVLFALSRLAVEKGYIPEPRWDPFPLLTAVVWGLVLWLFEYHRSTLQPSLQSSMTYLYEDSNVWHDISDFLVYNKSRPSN
UniProt O14818: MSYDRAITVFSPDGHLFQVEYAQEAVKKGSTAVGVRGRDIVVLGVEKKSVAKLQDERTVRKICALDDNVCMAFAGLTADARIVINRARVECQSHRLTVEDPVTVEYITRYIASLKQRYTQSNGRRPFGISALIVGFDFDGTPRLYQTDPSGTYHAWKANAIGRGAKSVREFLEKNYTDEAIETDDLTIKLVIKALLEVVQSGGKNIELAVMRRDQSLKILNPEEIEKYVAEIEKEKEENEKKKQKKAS

Key:
Assay in all cases: log2 fold change, soluble protein after heating vs DMSO (PISA); higher = thermal stabilisation; K562 cells, 10 uM, 30 min; active = over 0.2 and 3.5 SD of the protein, either way, in both replicates (recomputed)
[1] = compound: CC1=C(C=C(C=C1)NC(=O)C2=CC(=CC=C2)C(C)(C)C#N)NC3=CC4=C(C=C3)N=CN(C4=O)C
In short: (§1)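 K562 cells at 2×10^6 cells/mL were treated with 10 μM compound for 30 min. Aliquots were heated for 3 min across 48°C-58°C, pooled, and extracted in PBS with 0.5% NP-40 at 4°C; soluble protein was the supernatant after 21,000xg for 90 min. Soluble protein was quantified by TMTpro 16plex LC-MS/MS with channel sums equalised, and reported as log2 fold change in thermal stability against DMSO controls, with values from duplicates.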

[2] = compound: CC1=C(C=C(C=C1)NC(=O)C2=CC(=CC=C2)N(C)C)NC(=O)C3=CC=C(C=C3)O
In short: as §1

[3] = compound: CC1=CC=C(C=C1)SC2=C3C=C(SC3=CN=C2)C(=O)N
In short: as §1

[4] = compound: CC1=NC(=CC=C1)C2=C(N=C(N2)C(C)(C)C)C3=CC4=NC=CN=C4C=C3
In short: as §1

[5] = compound: CCCCN(Cc1ccc(C(=O)NO)cc1)C(=O)Nc1ccccc1 [Nexturastat A]
In short: as §1

[6] = compound: CCCS(=O)(=O)Nc1ccc(F)c(C(=O)c2c[nH]c3ncc(-c4ccc(Cl)cc4)cc23)c1F [vemurafenib]
In short: as §1

[7] = compound: CCCS(=O)(=O)Nc1ccc(F)c(C(=O)c2c[nH]c3ncc(Cl)cc23)c1F
In short: as §1

[8] = compound: CCCc1cc(C)[nH]c(=O)c1CNC(=O)c1cc(-c2ccnc(N3CCN(C)CC3)c2)cc2c1cnn2C(C)C
In short: as §1

[9] = compound: CCN(CC)Cc1ccc2cc(COC(=O)Nc3ccc(C(=O)NO)cc3)ccc2c1 [givinostat]
In short: as §1

[10] = compound: CCN(CCCOc1ccc2c(Nc3cc(CC(=O)Nc4cccc(F)c4)[nH]n3)ncnc2c1)CCOP(=O)(O)O [barasertib]
In short: as §1

[11] = compound: CC[C@@H]1C(=O)N(C)c2cnc(Nc3ccc(C(=O)NC4CCN(C)CC4)cc3OC)nc2N1C1CCCC1
In short: as §1

[12] = compound: CC[C@@H]1C(=O)N(C)c2cnc(Nc3ccc(C(=O)N[C@H]4CC[C@H](N5CCN(CC6CC6)CC5)CC4)cc3OC)nc2N1C(C)C [volasertib]
In short: as §1

[13] = compound: CC[C@H](C)N1C=C(C2=C(C=C(C=C21)C3=CN=C(C=C3)N4CCNCC4)C(=O)NCC5=C(C=C(NC5=O)C)C)C
In short: as §1

[14] = compound: CC[C@H](C)[C@@H](C(=O)N[C@@H]([C@@H](C)O)C(=O)N[C@@H](CC(C)C)C(=O)[C@]1(CO1)C)NC(=O)[C@H]([C@@H](C)CC)N(C)C(=O)C [epoxomicin]
In short: as §1

[15] = compound: CCn1c(C(=O)N(C2CC2)C2CC2)cc2c3c(ncn3C)c(Nc3cc(C)n(C)n3)nc21
In short: as §1

[16] = compound: CCn1cc(-c2ccnc3[nH]c(-c4cccc(CN(C)C)c4)cc23)c(-c2ccc(NC(=O)N(C)C)cc2)n1
In short: as §1

[17] = compound: CN(C)CC(=O)Nc1ccc2[nH]c(=O)c3ccccc3c2c1
In short: as §1

[18] = compound: CN(CCOC1=CC=C(C=C1)C[C@H]2C(=O)NC(=O)S2)C3=CC=CC=N3 (racemic) [rosiglitazone]
In short: as §1

[19] = compound: CN1C2=C(C3=C1C(=O)N(N=C3)CC4=CC(=CC=C4)N)SC(=C2)S(=O)C
In short: as §1

[20] = compound: CN1CCC(CNc2ccc3ncc(-c4cccc(OC(F)(F)F)c4)n3n2)CC1
In short: as §1

Measured: log2 fold change

PSME1 (UniProt Q06323)
inactive: [1] 0.012 | [2] -0.006 | [3] 0 | [4] 0.062 | [5] -0.16 | [6] 0.04 | [7] -0.024 | [8] -0.008 | [9] -0.017 | [10] 0.003 | [11] -0.005 | [12] 0.11 | [13] 0.03 | [14] -0.008 | [15] 0.007 | [16] -0.054 | [17] 0.018 | [18] 0.019 | [19] -0.015 | [20] -0.028

PSMG4 isoform 2 (UniProt Q5JS54)
inactive: [1] 0.099 | [2] -0.095 | [3] 0.061 | [4] -0.069 | [5] -0.099 | [6] 0.017 | [7] 0.13 | [8] 0.405 | [9] -0.067 | [10] -0.019 | [11] 0.012 | [12] -0.021 | [13] 0.074 | [14] 0.201 | [15] -0.009 | [16] -0.107 | [17] 0.02 | [18] -0.082 | [19] -0.072 | [20] 0.208

PSMD10 (UniProt O75832)
inactive: [1] -0.029 | [2] -0.079 | [3] 0.042 | [4] 0.061 | [5] -0.041 | [6] 0.055 | [7] 0.096 | [8] -0.007 | [9] 0.023 | [10] 0.031 | [11] -0.127 | [12] -0.155 | [13] 0.048 | [14] 0.139 | [15] 0.082 | [16] -0.016 | [17] 0.057 | [18] 0.033 | [19] -0.034 | [20] 0.037

PUS7 isoform 2 (UniProt Q96PZ0)
inactive: [1] 0.038 | [2] -0.011 | [3] -0.031 | [4] -0.055 | [5] 0.052 | [6] -0.01 | [7] -0.015 | [8] -0.002 | [9] -0.046 | [10] -0.001 | [11] 0.045 | [12] 0.017 | [13] 0.053 | [14] 0.012 | [15] 0.007 | [16] 0.014 | [17] -0.011 | [18] -0.005 | [19] 0.012 | [20] -0.07

PTER (UniProt Q96BW5)
inactive: [1] -0.027 | [2] 0.04 | [3] 0.051 | [4] 0.009 | [5] -0.032 | [6] -0.001 | [7] -0.007 | [8] -0.041 | [9] -0.06 | [10] 0.001 | [11] 0.03 | [12] 0.052 | [13] -0.047 | [14] 0.028 | [15] 0.016 | [16] 0.006 | [17] -0.018 | [18] 0.015 | [19] -0.068 | [20] 0

PSMA5 (UniProt P28066)
inactive: [1] 0.04 | [2] 0.015 | [3] -0.001 | [4] -0.021 | [5] 0.028 | [6] -0.014 | [7] -0.001 | [8] 0.008 | [9] -0.044 | [10] -0.051 | [11] 0.035 | [12] 0.13 | [13] -0.03 | [14] -0.131 | [15] 0.039 | [16] 0.033 | [17] 0.002 | [18] -0.034 | [19] -0.009 | [20] 0.038

2 consecutive entries out of the list so far, quoted:
PSMD10 (UniProt O75832)
inactive: [1] -0.029 | [2] -0.079 | [3] 0.042 | [4] 0.061 | [5] -0.041 | [6] 0.055 | [7] 0.096 | [8] -0.007 | [9] 0.023 | [10] 0.031 | [11] -0.127 | [12] -0.155 | [13] 0.048 | [14] 0.139 | [15] 0.082 | [16] -0.016 | [17] 0.057 | [18] 0.033 | [19] -0.034 | [20] 0.037

PUS7 isoform 2 (UniProt Q96PZ0)
inactive: [1] 0.038 | [2] -0.011 | [3] -0.031 | [4] -0.055 | [5] 0.052 | [6] -0.01 | [7] -0.015 | [8] -0.002 | [9] -0.046 | [10] -0.001 | [11] 0.045 | [12] 0.017 | [13] 0.053 | [14] 0.012 | [15] 0.007 | [16] 0.014 | [17] -0.011 | [18] -0.005 | [19] 0.012 | [20] -0.07

(next part)

PRTFDC1 (UniProt Q9NRG1)
inactive: [1] -0.036 | [2] 0.019 | [3] 0.01 | [4] -0.033 | [5] -0.054 | [6] -0.03 | [7] -0.038 | [8] -0.039 | [9] -0.129 | [10] 0.011 | [11] -0.004 | [12] 0.091 | [13] -0.047 | [14] 0 | [15] -0.044 | [16] 0.032 | [17] -0.056 | [18] 0.007 | [19] -0.054 | [20] -0.042

PSTPIP2 (UniProt Q9H939)
inactive: [1] -0.011 | [2] -0.031 | [3] -0.004 | [4] 0.027 | [5] 0.096 | [6] -0.019 | [7] 0.047 | [8] 0.05 | [9] 0.026 | [10] 0.042 | [11] 0 | [12] -0.08 | [13] -0.009 | [14] -0.023 | [15] -0.026 | [16] -0.087 | [17] 0.032 | [18] -0.011 | [19] -0.024 | [20] 0.108

PSME3 isoform 2 (UniProt P61289)
inactive: [1] -0.008 | [2] 0.028 | [3] -0.012 | [4] 0.013 | [5] -0.035 | [6] 0.037 | [7] -0.025 | [8] 0.007 | [9] -0.019 | [10] -0.021 | [11] -0.009 | [12] 0.067 | [13] -0.014 | [14] -0.118 | [15] 0.036 | [16] 0.012 | [17] -0.009 | [18] 0.024 | [19] -0.039 | [20] -0.006

PSMB7 (UniProt Q99436)
inactive: [1] -0.005 | [2] 0.001 | [3] -0.026 | [4] -0.025 | [5] 0.03 | [6] -0.039 | [7] -0.016 | [8] -0.014 | [9] -0.009 | [10] -0.029 | [11] 0.062 | [12] 0.148 | [13] -0.018 | [14] -0.184 | [15] 0.008 | [16] 0.01 | [17] -0.028 | [18] -0.023 | [19] -0.009 | [20] 0.063

PWP1 (UniProt Q13610)
inactive: [1] -0.008 | [2] 0.013 | [3] -0.071 | [4] -0.182 | [5] 0.28 | [6] -0.09 | [7] -0.027 | [8] 0.114 | [9] -0.024 | [10] -0.156 | [11] 0.263 | [12] 0.586 | [13] -0.037 | [14] -0.36 | [15] 0.092 | [16] 0.311 | [17] -0.138 | [18] -0.188 | [19] 0.387 | [20] 0.427

QPCTL (UniProt Q9NXS2)
inactive: [1] -0.04 | [2] 0.06 | [3] -0.098 | [4] -0.059 | [5] 0.03 | [6] -0.069 | [7] -0.01 | [8] 0.044 | [9] 0.005 | [10] -0.006 | [11] 0.009 | [12] -0.072 | [13] 0.033 | [14] 0.001 | [15] 0.004 | [16] -0.06 | [17] -0.036 | [18] 0.036 | [19] 0.082 | [20] 0.07

PSMA4 (UniProt P25789)
inactive: [1] 0.032 | [2] 0.025 | [3] -0.042 | [4] -0.009 | [5] -0.04 | [6] -0.01 | [7] -0.054 | [8] -0.011 | [9] -0.029 | [10] -0.047 | [11] 0.067 | [12] 0.151 | [13] -0.038 | [14] -0.126 | [15] 0.025 | [16] 0.09 | [17] -0.028 | [18] -0.018 | [19] 0.014 | [20] 0.079

PTPN1 (UniProt P18031)
inactive: [1] -0.065 | [2] -0.066 | [3] 0.025 | [4] -0.054 | [5] 0.145 | [6] -0.011 | [7] 0.069 | [8] 0.069 | [9] 0.154 | [10] 0.101 | [11] -0.104 | [12] -0.461 | [13] 0.08 | [14] -0.019 | [15] -0.116 | [16] 0.046 | [17] 0.023 | [18] 0.055 | [19] 0.181 | [20] -0.04

PXMP4 (UniProt Q9Y6I8)
inactive: [1] -0.019 | [2] 0.033 | [3] 0.012 | [4] -0.02 | [5] 0.055 | [6] 0.238 | [7] 0.038 | [8] -0.074 | [9] -0.026 | [10] 0.049 | [11] 0.042 | [12] -0.12 | [13] -0.028 | [14] -0.023 | [15] -0.046 | [16] -0.036 | [17] 0.061 | [18] 0.016 | [19] -0.057 | [20] 0.07

PSMA7 (UniProt O14818)
inactive: [1] -0.007 | [2] 0.048 | [3] -0.054 | [4] -0.015 | [5] -0.011 | [6] -0.022 | [7] -0.093 | [8] -0.006 | [9] -0.079 | [10] -0.02 | [11] 0.07 | [12] 0.136 | [13] -0.026 | [14] -0.139 | [15] 0.031 | [16] 0.096 | [17] -0.019 | [18] -0.032 | [19] 0.015 | [20] 0.073
